Reference: article PMC7862700
This is a selection; strong and weak results do not stand in their true shares. For part of these data: At the low end of the ranking, values are background and their order means little. Some of the results follow. For part of these data: The source does not settle which construct or isoform was used.

By UniProt entry, the sequences of proteins in these tests, tags left out. Where a name states a change or a piece, a line headed by the entry shows the natural chain unless it says otherwise.
UniProt P32519: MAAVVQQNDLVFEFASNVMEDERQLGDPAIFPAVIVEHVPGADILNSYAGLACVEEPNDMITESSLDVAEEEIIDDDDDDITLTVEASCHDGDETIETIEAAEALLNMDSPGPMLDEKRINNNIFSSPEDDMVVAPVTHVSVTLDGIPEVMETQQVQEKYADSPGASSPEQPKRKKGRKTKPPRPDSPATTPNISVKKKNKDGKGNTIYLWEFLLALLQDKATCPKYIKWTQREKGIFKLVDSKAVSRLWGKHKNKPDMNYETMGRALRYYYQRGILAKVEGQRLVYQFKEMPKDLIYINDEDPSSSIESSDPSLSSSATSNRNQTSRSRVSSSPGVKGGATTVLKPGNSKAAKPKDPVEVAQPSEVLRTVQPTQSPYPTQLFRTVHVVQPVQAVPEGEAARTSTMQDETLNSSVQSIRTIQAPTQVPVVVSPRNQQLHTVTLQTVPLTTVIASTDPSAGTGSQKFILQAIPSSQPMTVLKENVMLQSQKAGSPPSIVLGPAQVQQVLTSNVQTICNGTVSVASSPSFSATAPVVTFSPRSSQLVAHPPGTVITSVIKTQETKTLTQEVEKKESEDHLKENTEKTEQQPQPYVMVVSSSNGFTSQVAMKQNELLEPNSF
UniProt P50549: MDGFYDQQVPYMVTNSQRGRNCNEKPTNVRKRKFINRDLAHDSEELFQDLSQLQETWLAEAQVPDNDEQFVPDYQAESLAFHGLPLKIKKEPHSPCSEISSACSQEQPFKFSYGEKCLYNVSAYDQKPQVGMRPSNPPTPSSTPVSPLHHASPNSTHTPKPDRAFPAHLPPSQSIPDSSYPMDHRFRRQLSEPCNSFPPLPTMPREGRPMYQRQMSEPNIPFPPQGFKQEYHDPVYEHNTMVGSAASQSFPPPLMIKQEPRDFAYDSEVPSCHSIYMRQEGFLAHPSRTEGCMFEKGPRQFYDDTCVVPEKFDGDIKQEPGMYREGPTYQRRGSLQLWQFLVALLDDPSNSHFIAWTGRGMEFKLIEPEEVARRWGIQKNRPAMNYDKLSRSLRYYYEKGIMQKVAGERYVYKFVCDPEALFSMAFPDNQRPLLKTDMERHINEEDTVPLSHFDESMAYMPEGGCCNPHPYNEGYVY

The sequences below were run against T1, ERG (UniProt P11308) (assay: DAPPL (digital affinity profiling via proximity ligation, sequencing)). Conditions: 10 mM Tris-HCl pH 7.5, 50 mM NaCl, 1 mM DTT, 4% glycerol, room temperature, 30 min; GST-TFs on glutathione beads, 16-mer random dsDNA library, 0.1% …; high values mean tight binding; double strand, one strand shown; scale: fold enrichment (6-mer frequency, TF over GST control).
T1 sequence: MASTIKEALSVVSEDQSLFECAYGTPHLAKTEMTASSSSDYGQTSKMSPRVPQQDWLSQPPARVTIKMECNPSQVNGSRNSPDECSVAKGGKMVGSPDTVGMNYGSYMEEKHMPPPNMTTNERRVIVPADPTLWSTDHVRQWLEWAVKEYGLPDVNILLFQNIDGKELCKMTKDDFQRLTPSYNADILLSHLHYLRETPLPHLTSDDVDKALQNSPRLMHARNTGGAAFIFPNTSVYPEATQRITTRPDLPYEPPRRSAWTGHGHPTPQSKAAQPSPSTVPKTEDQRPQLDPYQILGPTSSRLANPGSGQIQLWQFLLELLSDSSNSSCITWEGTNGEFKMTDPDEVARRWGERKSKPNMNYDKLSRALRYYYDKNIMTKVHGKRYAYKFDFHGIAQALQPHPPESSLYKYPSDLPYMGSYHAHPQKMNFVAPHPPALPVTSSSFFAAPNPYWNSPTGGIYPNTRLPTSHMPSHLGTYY

Sequence | binding signal
AGAGAC | 0.487
GACACG | 0.676
ATGTCG | 0.674
CTGTGA | 0.479
GACTGA | 0.732
GTTCGG | 0.612
CCGCGA | 0.834
CCCGGG | 0.775
GGTACC | 0.759
GAGACG | 0.341
GTGCCA | 0.796
GACAGG | 0.634
GCACAG | 0.761
GCGTCG | 0.826
CCCAGG | 0.772
GATCGG | 0.472
GGCGTG | 0.335
GCATGT | 0.727
GTCAAC | 0.869

Sequence | binding signal
CAGTGG | 0.506
GTCGGG | 0.245
CGTGAG | 0.123
CATAGG | 0.792
AGGTGC | 0.602
CAAGTG | 0.725
CGGGAA | 0.762
GACCAT | 0.823
GTGAGT | 0.14
GAGTAG | 0.453
CGGTAG | 0.716
AGGTGG | 0.685
GAGGTC | 0.575
GACGCG | 0.625
TGCCAG | 0.686
GCACGT | 0.757
GCGTGC | 0.827
AAGGTG | 0.895
GCAGAG | 0.595

The sequences below were run against ELF1 (UniProt P32519) in the same assay as above. Conditions: 10 mM Tris-HCl pH 7.5, 50 mM NaCl, 1 mM DTT, 4% glycerol, room temperature, 30 min; GST-TFs on glutathione beads, 16-mer random dsDNA library, 0.1% …; high values mean tight binding; double strand, one strand shown; scale: fold enrichment (6-mer frequency, TF over GST control).

Sequence | binding signal
AGAGAC | 0.546
GACACG | 0.712
ATGTCG | 0.66
CTGTGA | 0.5
GACTGA | 0.847
GTTCGG | 0.65
CCGCGA | 0.77
CCCGGG | 0.849
GGTACC | 0.851
GAGACG | 0.312
GTGCCA | 0.789
GACAGG | 0.585
GCACAG | 0.759
GCGTCG | 0.73
CCCAGG | 0.766
GATCGG | 0.486
GGCGTG | 0.334
GCATGT | 0.775
GTCAAC | 0.876

Sequence | binding signal
CAGTGG | 0.485
GTCGGG | 0.206
CGTGAG | 0.112
CATAGG | 0.718
AGGTGC | 0.662
CAAGTG | 0.75
CGGGAA | 0.679
GACCAT | 0.798
GTGAGT | 0.114
GAGTAG | 0.524
CGGTAG | 0.681
AGGTGG | 0.655
GAGGTC | 0.601
GACGCG | 0.632
TGCCAG | 0.702
GCACGT | 0.816
GCGTGC | 0.836
AAGGTG | 0.949
GCAGAG | 0.664

Each sequence was assayed against T2, ELK4 (UniProt P28324-2) in the same assay as above. Conditions: 10 mM Tris-HCl pH 7.5, 50 mM NaCl, 1 mM DTT, 4% glycerol, room temperature, 30 min; GST-TFs on glutathione beads, 16-mer random dsDNA library, 0.1% …; high values mean tight binding; double strand, one strand shown; scale: fold enrichment (6-mer frequency, TF over GST control).
T2 sequence: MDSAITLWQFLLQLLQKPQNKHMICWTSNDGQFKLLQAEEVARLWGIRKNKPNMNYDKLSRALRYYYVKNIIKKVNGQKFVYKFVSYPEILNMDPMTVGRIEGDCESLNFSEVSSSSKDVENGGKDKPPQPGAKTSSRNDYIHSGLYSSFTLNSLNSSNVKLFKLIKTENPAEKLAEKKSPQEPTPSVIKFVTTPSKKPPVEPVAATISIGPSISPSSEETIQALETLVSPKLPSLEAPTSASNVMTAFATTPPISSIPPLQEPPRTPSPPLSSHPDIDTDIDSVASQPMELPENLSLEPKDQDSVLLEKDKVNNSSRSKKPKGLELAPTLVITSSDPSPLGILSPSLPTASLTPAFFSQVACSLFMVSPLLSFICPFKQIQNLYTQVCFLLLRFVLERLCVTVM

Sequence | binding signal
AGAGAC | 0.519
GACACG | 0.763
ATGTCG | 0.671
CTGTGA | 0.52
GACTGA | 0.826
GTTCGG | 0.658
CCGCGA | 0.78
CCCGGG | 0.872
GGTACC | 0.884
GAGACG | 0.317
GTGCCA | 0.783
GACAGG | 0.585
GCACAG | 0.813
GCGTCG | 0.672
CCCAGG | 0.741
GATCGG | 0.489
GGCGTG | 0.334
GCATGT | 0.753
GTCAAC | 0.945

Sequence | binding signal
CAGTGG | 0.498
GTCGGG | 0.207
CGTGAG | 0.13
CATAGG | 0.702
AGGTGC | 0.696
CAAGTG | 0.72
CGGGAA | 0.75
GACCAT | 0.869
GTGAGT | 0.138
GAGTAG | 0.482
CGGTAG | 0.706
AGGTGG | 0.642
GAGGTC | 0.634
GACGCG | 0.755
TGCCAG | 0.713
GCACGT | 0.792
GCGTGC | 0.92
AAGGTG | 0.884
GCAGAG | 0.754

What follows are sequences tested against T3, ETV4 (UniProt P43268) in the same assay as above. Conditions: 10 mM Tris-HCl pH 7.5, 50 mM NaCl, 1 mM DTT, 4% glycerol, room temperature, 30 min; GST-TFs on glutathione beads, 16-mer random dsDNA library, 0.1% …; high values mean tight binding; double strand, one strand shown; scale: fold enrichment (6-mer frequency, TF over GST control).
T3 sequence: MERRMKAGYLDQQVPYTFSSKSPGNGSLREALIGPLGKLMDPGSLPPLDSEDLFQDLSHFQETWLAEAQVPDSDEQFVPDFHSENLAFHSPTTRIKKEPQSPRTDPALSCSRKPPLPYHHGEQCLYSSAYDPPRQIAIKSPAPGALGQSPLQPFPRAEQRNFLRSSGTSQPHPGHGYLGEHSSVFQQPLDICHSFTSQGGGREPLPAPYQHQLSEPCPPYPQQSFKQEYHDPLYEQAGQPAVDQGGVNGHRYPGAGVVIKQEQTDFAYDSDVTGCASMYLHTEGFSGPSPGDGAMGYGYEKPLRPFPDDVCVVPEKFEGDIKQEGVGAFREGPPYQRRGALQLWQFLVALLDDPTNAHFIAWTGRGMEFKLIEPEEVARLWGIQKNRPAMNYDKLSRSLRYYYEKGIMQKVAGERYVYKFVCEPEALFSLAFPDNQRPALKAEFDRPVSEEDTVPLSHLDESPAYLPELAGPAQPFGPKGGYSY

Sequence | binding signal
AGAGAC | 0.493
GACACG | 0.684
ATGTCG | 0.627
CTGTGA | 0.49
GACTGA | 0.843
GTTCGG | 0.645
CCGCGA | 0.798
CCCGGG | 0.83
GGTACC | 0.8
GAGACG | 0.333
GTGCCA | 0.763
GACAGG | 0.591
GCACAG | 0.734
GCGTCG | 0.719
CCCAGG | 0.86
GATCGG | 0.495
GGCGTG | 0.318
GCATGT | 0.809
GTCAAC | 0.891

Sequence | binding signal
CAGTGG | 0.485
GTCGGG | 0.203
CGTGAG | 0.108
CATAGG | 0.768
AGGTGC | 0.596
CAAGTG | 0.688
CGGGAA | 0.74
GACCAT | 0.915
GTGAGT | 0.119
GAGTAG | 0.525
CGGTAG | 0.684
AGGTGG | 0.609
GAGGTC | 0.601
GACGCG | 0.664
TGCCAG | 0.621
GCACGT | 0.778
GCGTGC | 0.776
AAGGTG | 0.865
GCAGAG | 0.695

What follows are sequences tested against ETV1 (UniProt P50549) in the same assay as above. Conditions: 10 mM Tris-HCl pH 7.5, 50 mM NaCl, 1 mM DTT, 4% glycerol, room temperature, 30 min; GST-TFs on glutathione beads, 16-mer random dsDNA library, 0.1% …; high values mean tight binding; double strand, one strand shown; scale: fold enrichment (6-mer frequency, TF over GST control).

Sequence | binding signal
AGAGAC | 0.497
GACACG | 0.689
ATGTCG | 0.569
CTGTGA | 0.53
GACTGA | 0.837
GTTCGG | 0.568
CCGCGA | 0.775
CCCGGG | 0.848
GGTACC | 0.84
GAGACG | 0.286
GTGCCA | 0.781
GACAGG | 0.556
GCACAG | 0.76
GCGTCG | 0.785
CCCAGG | 0.784
GATCGG | 0.455
GGCGTG | 0.346
GCATGT | 0.782
GTCAAC | 0.925

Sequence | binding signal
CAGTGG | 0.437
GTCGGG | 0.211
CGTGAG | 0.118
CATAGG | 0.692
AGGTGC | 0.736
CAAGTG | 0.714
CGGGAA | 0.751
GACCAT | 0.786
GTGAGT | 0.136
GAGTAG | 0.512
CGGTAG | 0.739
AGGTGG | 0.573
GAGGTC | 0.657
GACGCG | 0.586
TGCCAG | 0.707
GCACGT | 0.742
GCGTGC | 0.863
AAGGTG | 0.889
GCAGAG | 0.619

What follows are sequences tested against T4, ERF (UniProt P50548) in the same assay as above. Conditions: 10 mM Tris-HCl pH 7.5, 50 mM NaCl, 1 mM DTT, 4% glycerol, room temperature, 30 min; GST-TFs on glutathione beads, 16-mer random dsDNA library, 0.1% …; high values mean tight binding; double strand, one strand shown; scale: fold enrichment (6-mer frequency, TF over GST control).
T4 sequence: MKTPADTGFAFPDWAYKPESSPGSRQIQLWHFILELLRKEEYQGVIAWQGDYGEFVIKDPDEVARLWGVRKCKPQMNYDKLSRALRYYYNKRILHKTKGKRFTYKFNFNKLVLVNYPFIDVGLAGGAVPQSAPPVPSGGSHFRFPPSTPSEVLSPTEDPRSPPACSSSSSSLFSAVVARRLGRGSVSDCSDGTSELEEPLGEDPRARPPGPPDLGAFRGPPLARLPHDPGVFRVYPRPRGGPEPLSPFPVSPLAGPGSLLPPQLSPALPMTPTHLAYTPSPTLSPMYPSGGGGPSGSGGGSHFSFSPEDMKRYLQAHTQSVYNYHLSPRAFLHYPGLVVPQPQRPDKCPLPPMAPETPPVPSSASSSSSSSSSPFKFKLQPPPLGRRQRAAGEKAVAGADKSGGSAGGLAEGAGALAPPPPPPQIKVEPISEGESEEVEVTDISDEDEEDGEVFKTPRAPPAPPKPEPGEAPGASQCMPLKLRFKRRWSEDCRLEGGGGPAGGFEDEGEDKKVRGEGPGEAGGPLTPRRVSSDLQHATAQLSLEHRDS

Sequence | binding signal
AGAGAC | 0.523
GACACG | 0.72
ATGTCG | 0.646
CTGTGA | 0.526
GACTGA | 0.809
GTTCGG | 0.68
CCGCGA | 0.748
CCCGGG | 0.8
GGTACC | 0.795
GAGACG | 0.349
GTGCCA | 0.741
GACAGG | 0.558
GCACAG | 0.758
GCGTCG | 0.733
CCCAGG | 0.694
GATCGG | 0.514
GGCGTG | 0.315
GCATGT | 0.837
GTCAAC | 0.962

Sequence | binding signal
CAGTGG | 0.524
GTCGGG | 0.233
CGTGAG | 0.129
CATAGG | 0.8
AGGTGC | 0.643
CAAGTG | 0.738
CGGGAA | 0.661
GACCAT | 0.821
GTGAGT | 0.132
GAGTAG | 0.542
CGGTAG | 0.721
AGGTGG | 0.633
GAGGTC | 0.637
GACGCG | 0.689
TGCCAG | 0.719
GCACGT | 0.797
GCGTGC | 0.805
AAGGTG | 0.978
GCAGAG | 0.605
